One assay concerns the target T1, CD82 (UniProt P27701).
T1 sequence (chain, biotin (cells incubated with biotin before lysis)): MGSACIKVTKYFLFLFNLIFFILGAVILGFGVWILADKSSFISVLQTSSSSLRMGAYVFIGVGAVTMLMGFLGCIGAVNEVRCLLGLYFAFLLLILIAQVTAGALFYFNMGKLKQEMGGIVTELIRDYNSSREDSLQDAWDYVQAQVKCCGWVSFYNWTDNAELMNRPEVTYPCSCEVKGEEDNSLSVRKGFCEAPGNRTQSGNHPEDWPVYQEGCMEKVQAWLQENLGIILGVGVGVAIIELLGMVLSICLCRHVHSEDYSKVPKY
As to the kind of experiment: co-IP; surface-biotinylated HB2 cells, treated or not with PPMP, lysed in 30 mM Tris pH 7.4, 150 mM NaCl, 1% Brij97; 1 ug primary antibody and protein G-sepharose beads, 2 h at 4 °C; washes with 0.5% Brij97; non-reducing SDS-PAGE, blot with streptavidin-Alexa680.

Sequences of proteins named here, by UniProt entry; tags and fusion partners are left off.
UniProt P21926: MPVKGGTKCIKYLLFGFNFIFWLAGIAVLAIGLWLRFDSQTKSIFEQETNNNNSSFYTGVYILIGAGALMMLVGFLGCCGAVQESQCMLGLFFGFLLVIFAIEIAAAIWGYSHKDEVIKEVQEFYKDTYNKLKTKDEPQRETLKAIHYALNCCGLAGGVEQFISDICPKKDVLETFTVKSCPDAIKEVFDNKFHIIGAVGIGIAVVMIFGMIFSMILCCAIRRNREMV

Assay [1] deals with CD9 (human (endogenous in HB2)) (UniProt P21926). The assay is described as above.

Results are given in words; binding and its absence hold for the method and conditions named. In cells and extracts the contact can be indirect. Some entries that bind do so weakly or less than the wild type.

Regarding CD9 (from UniProt P21926 1-228), the binding result in the assay with CD82 is on record as “binds”.

B1: CD81 (protein, UniProt P60033 1-236)
chain: MGVEGCTKCIKYLLFVFNFVFWLAGGVILGVALWLRHDPQTTNLLYLELGDKPAPNTFYVGIYILIAVGAVMMFVGFLGCYGAIQESQCLLGTFFTCLVILFACEVAAGIWGFVNKDQIAKDVKQFYDQALQQAVVDDDANNAKAVVKTFHETLDCCGSSTLTALTTSVLKNNLCPSGSNIISNLFKEDCHQKIDDLFSGKLYLIGIAAIVVAVIMIFEMILSMVLCCGIRNSSVY
modifications: biotin (cells incubated with biotin before lysis)
As for B1, the binding entry (in the assay with CD82; in assay [1]) was “binds” each time.

The record behind these values is article PMC8395132.
